# In article PMC7819943, “Rice protein-binding microarrays: a tool to detect cis-acting elements near promoter regions in rice”:
# The list shows a part of the results.
# Target: T1, OsSMF1 (Oryza sativa, UniProt Q6ZLB0 1-436)
# T1 sequence: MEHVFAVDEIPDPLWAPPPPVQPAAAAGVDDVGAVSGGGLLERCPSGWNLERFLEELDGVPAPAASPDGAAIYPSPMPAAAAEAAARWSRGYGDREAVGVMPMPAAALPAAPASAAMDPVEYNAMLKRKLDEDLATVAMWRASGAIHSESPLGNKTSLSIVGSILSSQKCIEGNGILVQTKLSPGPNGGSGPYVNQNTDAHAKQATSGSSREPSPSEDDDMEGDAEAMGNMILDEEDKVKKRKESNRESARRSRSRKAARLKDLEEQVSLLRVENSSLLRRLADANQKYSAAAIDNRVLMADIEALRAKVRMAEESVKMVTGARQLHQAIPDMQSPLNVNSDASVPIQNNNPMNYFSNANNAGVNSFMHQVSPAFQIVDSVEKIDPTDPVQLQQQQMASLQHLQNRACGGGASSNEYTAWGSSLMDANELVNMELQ
# Experiment: protein-binding microarray (RPBM); PBS, 2% BSA, 51.3 ng/ul salmon testes DNA, 50 uM zinc acetate, 200 nM TF, 25 C, 1 h; high values mean tight binding
# Details: protein: recombinant; tags: N-terminal polyhistidine and DsRed monomer fusion (pET32a); chain copies: 2; label: CyDye5-dUTP incorporated in the synthesized complementary strand; 3' TTTTT single-stranded linker to array surface; dsDNA, one strand shown
# How it was run: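 For the binding signal, per-feature fluorescence intensity was read in arbitrary units on an Axon 4000B scanner. Before scanning, a 2% BSA-blocked custom Agilent array made double-stranded with Cy5-dUTP was washed after 1 h at 25 °C with 200 nM protein and 50 µM zinc acetate. The proteins were Ni–NTA-purified transcription factors with N-terminal polyhistidine and DsRed fusions, expressed in E. coli BL21-CodonPlus.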
row,Sequence,binding signal
1,GAATTTTAGAGTGGCCCACGTGTCATCGACAATAAATAAGCGGAGTCACCTAGTGCAG,5720 fluorescence intensity (a.u.)
2,GTGTCCTCGGAACGAACACGTATTTTCTAATTTACGTGTCCGGAGTCACCTAGTGCAG,4070 fluorescence intensity (a.u.)
3,GGGTTTAAGGGTTGGTTTGGTTTATGGTCTAGATAGGTCTCGGAGTCACCTAGTGCAG,3750 fluorescence intensity (a.u.)
4,TGAGATGCGGGAAGGAGATACCAGTGATGGTGGTGTCATTCGGAGTCACCTAGTGCAG,3530 fluorescence intensity (a.u.)
5,CCACCTATAAATATTGCATCGATCAACTCAAGTTGTCATCCGGAGTCACCTAGTGCAG,3690 fluorescence intensity (a.u.)
6,AAACAGCTTCCAAATCATTTCCCCTCCTCGTCTCCTCCAGCGGAGTCACCTAGTGCAG,3560 fluorescence intensity (a.u.)
7,GTTTGACGGTGGTGGAGCATCGATGCGTCAGCCGTGAACTCGGAGTCACCTAGTGCAG,7120 fluorescence intensity (a.u.)
8,GAGATTTGATGACTGGGATGCCACATGGACACCACGACAGCGGAGTCACCTAGTGCAG,13300 fluorescence intensity (a.u.)
9,ATATATACCTGCATACACTAGACTAGTATAATACCTGGCACGGAGTCACCTAGTGCAG,3530 fluorescence intensity (a.u.)
10,TAAGGGTTGTCATATCATGACATACCACTTGAATTTGTCCCGGAGTCACCTAGTGCAG,4550 fluorescence intensity (a.u.)
11,ACGCCAAATCTGGTGGTAGATCAACCGCATGACTGTCATGCGGAGTCACCTAGTGCAG,4820 fluorescence intensity (a.u.)
12,ACATCGTCCTAGGATGGGTGTCATCCTATGCTAGGTTGCTCGGAGTCACCTAGTGCAG,3840 fluorescence intensity (a.u.)
13,CGATCTCAGTCGCCACTTCCATGGCGTGGGCCGCGTGCCACGGAGTCACCTAGTGCAG,3980 fluorescence intensity (a.u.)
14,TTGGTCCACGTGCTTTTCTGTTGTTTTACATACTCTGGCCCGGAGTCACCTAGTGCAG,6210 fluorescence intensity (a.u.)
15,TACACAGCTCGTGGACCTCACGGTGCTGTACCAGAAAGCGCGGAGTCACCTAGTGCAG,3140 fluorescence intensity (a.u.)
16,TGCACGGCCTCGTGAGATGAGATCATGCATGCAGGATTCACGGAGTCACCTAGTGCAG,18000 fluorescence intensity (a.u.)
17,TACTGATGTTAGAGGACGAAGACGACGTGGCGAAACACTGCGGAGTCACCTAGTGCAG,7260 fluorescence intensity (a.u.)
18,GGGCCTTGAGCTCCGCCACTGTCAGCCCCGAGCTTCATCGCGGAGTCACCTAGTGCAG,25800 fluorescence intensity (a.u.)
19,CACGCCAACTAGGATGGATAGATGGGCCACATGTATTCCACGGAGTCACCTAGTGCAG,3530 fluorescence intensity (a.u.)
20,GGGTCCATATCACCGACAAACGCCAGTTGACGTGGCACTGCGGAGTCACCTAGTGCAG,16400 fluorescence intensity (a.u.)
21,AGCTCAGCTCTCTCTGCTCTGCTCTTTGCTCGATAACGACCGGAGTCACCTAGTGCAG,33600 fluorescence intensity (a.u.)
22,TGCCCTTCCCAAAGTGTGCATCTCTTGTGCTGACACTACACGGAGTCACCTAGTGCAG,4910 fluorescence intensity (a.u.)
23,AGGATGTGTAAGCTCCTGACTCAGAAATCTTAGTCCTCTTCGGAGTCACCTAGTGCAG,3730 fluorescence intensity (a.u.)

# In another format: entries from further up.
row	Sequence	binding signal
19	CACGCCAACTAGGATGGATAGATGGGCCACATGTATTCCACGGAGTCACCTAGTGCAG	3530 fluorescence intensity (a.u.)
20	GGGTCCATATCACCGACAAACGCCAGTTGACGTGGCACTGCGGAGTCACCTAGTGCAG	16400 fluorescence intensity (a.u.)
